From PubChem BioAssay AID588497 (NMMLSC, 2011)
The campaign covered roughly 360,000 compounds. About 780 (0.22%) were called active. The shares of active, inactive and inconclusive entries below differ from those in the screen. Rule as the data show it: active = inhibition above about 35% (passing the limit was not always enough); inconclusive = no clear call, values can overlap the other calls.

The compounds below were run on Botulinum neurotoxin type F light chain protease (Clostridium botulinum) (assay: BoNT/F light chain protease inhibitors, primary screen, biochemical, flow cytometry, MLPCN library (AID 588497; also: plate controls were buffer without enzyme for full effect and enzyme alone for no effect)). Settings: Multiplex microsphere protease cleavage assay, at 10 µM, active compounds read high.
For COc1ccccc1C(=O)NCCCCNC(=O)c1ccccc1OC, the inhibition was inconclusive: 44%.
With CCCCCCC(CC(=O)NCc1cccnc1)CC(=O)NCc1cccnc1 the inhibition was inconclusive: -41.3%.
For COc1ccc(/C=N/Nc2nc3ccccc3[nH]2)c(OC)c1OC, the inhibition was inconclusive: 119%.
For CCCCC(=O)Nc1ccc(NC(=O)c2cccnc2)cn1, the inhibition was inactive: -6.6%.
For CC(=O)/C=C\c1ccccc1OC(=O)c1cc2ccccc2oc1=O, the inhibition was inconclusive: -9.2%.
In the case of Cc1cc(=O)oc2cc(NC(=O)C(C)Oc3ccc(F)cc3)ccc12 (configuration not stated), the inhibition is reported as inactive: -6.3%.
With COc1ccc(OC)c(C(=O)c2coc3ccc(O)c(CN(C)C)c23)c1 the inhibition was inconclusive: -24%.
For CCC(=O)N(CCC(c1ccco1)C(C)C)Cc1ccccc1 (configuration not stated), the inhibition was inconclusive: 19.1%.
COc1cc(-c2coc3c(C(=O)NCc4cccc(Cl)c4)cccc23)ccc1O was tested, and the inhibition was inactive: -11.8%.
In the case of CC(C)NC(=O)/C(C#N)=C/c1ccc(N(C)C)o1, the inhibition is reported as inconclusive: 53%.
CCc1nnc(NC(=O)CSc2ccc(-c3ccc(-n4cccn4)cc3)nn2)s1 was tested, and the inhibition was inconclusive: 2%.
For O=c1c2ccccc2nc2sc(Nc3ccc(F)cc3)nn12, the inhibition was inactive: 0.3%.
CCc1nc(-c2cc3ccc(C)cc3[nH]c2=O)no1 was tested, and the inhibition was inactive: -0.6%.
In the case of COc1ccc(F)cc1S(=O)(=O)NCC1CCCO1 (configuration not stated), the inhibition is reported as inconclusive: -11%.
In the case of CC1(CC(=O)O)SC(=O)NC1=O (configuration not stated), the inhibition is reported as inconclusive: -15%.
Cc1ccc(CS(=O)(=O)Cc2ccc(C(=O)N3CCC4(CC3)OCCO4)o2)cc1 was tested, and the inhibition was inactive: -2.3%.
CCCNC(=O)c1cc(C2CCCCN2C(=O)OCC(C)C)on1 (configuration not stated) was tested, and the inhibition was inactive: -3.7%.
In the case of Cc1ccc([N+](=O)[O-])c(-c2n[nH]c(=S)n2-c2cccc(Cl)c2)c1, the inhibition is reported as inconclusive: -21.6%.
With C/C(CC(=O)Nc1ccc(Cl)cc1Cl)=N\NC(=O)c1cnccn1 the inhibition was inconclusive: 74.4%.
For Cc1cccc(NS(=O)(=O)c2ccc(C(C)(C)C)cc2)n1, the inhibition was inconclusive: 10.1%.
In the case of Cc1ccc(N2C(=O)CC(N3CCSCC3)C2=O)c(C)c1 (configuration not stated), the inhibition is reported as inconclusive: -26.4%.
For Cn1c(SCc2cccc(Br)c2)nnc1-c1ccccn1, the inhibition was inconclusive: 10%.
In the case of COc1ccc(-c2cc(C)no2)cc1S(=O)(=O)N1CCOc2ccc(C)cc21, the inhibition is reported as inactive: 0.7%.
With COc1ccc(NC(=O)CN(C)C(=O)CCCc2c[nH]c3ccccc23)cc1 the inhibition was inconclusive: -14.4%.
With COc1ccc(OC)c(-c2csc(N(Cc3ccco3)C(=O)c3cccs3)n2)c1 the inhibition was inactive: 0.9%.
In the case of O=C1C(=O)N(CCS(=O)(=O)c2ccccc2)c2ccc(F)cc21, the inhibition is reported as inconclusive: 6.7%.
Cc1cc(C)c(S(=O)(=O)N2CCCCC2CCNC(=O)C(=O)NCc2cccnc2)c(C)c1 (configuration not stated) was tested, and the inhibition was inactive: 0.3%.
N#CCCn1cc(C(=O)CN2C(=O)NC3(CCc4ccccc43)C2=O)c2ccccc21 (configuration not stated) was tested, and the inhibition was inactive: -2.6%.
For O=C(O)c1cncc(SCc2ccccc2)n1, the inhibition was inconclusive: -42.8%.
Cc1cc(Cl)ccc1NC(=O)/C=N/O was tested, and the inhibition was inconclusive: 20.7%.
With O=C(CSc1ccc2c(c1)OCCO2)N1CCN(c2ccccc2)CC1 the inhibition was inconclusive: 7.1%.
Cc1nc2c(Cl)cc(Cl)cc2[nH]1 was tested, and the inhibition was inactive: 0.3%.
O=C(CN1CCCCCC1)NN(Cc1ccccc1)c1ccccc1 was tested, and the inhibition was inconclusive: 9.5%.
CC(=O)/C(N=Nc1ccc(OC(F)(F)F)cc1)=C(\C)O was tested, and the inhibition was inconclusive: 35.4%.
For COC(=O)/C=C(\Oc1ccccc1)C1(O)CCCCC1, the inhibition was inconclusive: -15.9%.
In the case of NS(=O)(=O)c1ccc(S(=O)(=O)N(CCc2ccccc2)Cc2ccccn2)cc1, the inhibition is reported as inconclusive: -12.4%.
With COc1ccc(CCNC(=O)CN(c2ccccc2OC)S(C)(=O)=O)cc1 the inhibition was inconclusive: -13.7%.
N#CCn1c(Cc2ccccc2)nc2ccccc2c1=O was tested, and the inhibition was inconclusive: 3.2%.
Cc1ccccc1NC(=O)C(C)SCc1ccccc1 (configuration not stated) was tested, and the inhibition was inconclusive: 0.7%.
In the case of Cc1cc(C(=O)O)cc(S(=O)(=O)Nc2ccccc2C(=O)NC2CC2)c1C, the inhibition is reported as inactive: -6.5%.
With CC(=O)Nc1ccc(NC(=O)c2ccc(COc3ccccc3)cc2)cc1 the inhibition was inconclusive: 17.7%.
In the case of COCCn1c(SCC(=O)N2CCCc3ccccc32)nc2cccnc21, the inhibition is reported as inconclusive: 5.4%.
CC(=O)Nc1cc(-c2cccc(C(=O)NCCN(C)C)c2)cn2c(-c3cccc(C(F)(F)F)c3)cnc12 was tested, and the inhibition was inactive: -17.2%.
With O=C(O)c1ccc(NS(=O)(=O)c2cccc(C(=O)Nc3ccc([N+](=O)[O-])cc3)c2)cc1 the inhibition was inconclusive: 0.1%.
CCOC(=O)CNC(=O)COc1coc(CN2CCN(c3ccccc3F)CC2)cc1=O was tested, and the inhibition was inactive: 0.9%.
For Cc1[nH]c2ccccc2c1CCNC(=O)c1ccc2nccnc2c1, the inhibition was inconclusive: 45.5%.
In the case of Clc1ccc(-c2csc(N/N=C/c3ccco3)n2)cc1, the inhibition is reported as inconclusive: 13.9%.
Cc1c(C(c2ccc(F)cc2)c2c(C)n(C)n(-c3ccccc3)c2=O)c(=O)n(-c2ccccc2)n1C was tested, and the inhibition was inconclusive: 28.8%.
With COc1ccc(NS(=O)(=O)c2cccc(C(=O)N3CCCC(C)C3)c2)cc1 (configuration not stated) the inhibition was inactive: -10.5%.
CCCCCCn1c(C(C)NC(=O)c2ccco2)nc2ccccc21 (configuration not stated) was tested, and the inhibition was inconclusive: -13.9%.
With COc1ccc2[nH]c3c(c2c1)CCN1C(=O)N([C@@H](C)C(=O)NCc2ccc(C)cc2)C(=O)[C@]31C the inhibition was inactive: -3.9%.
In the case of CC(C)/C(C=O)=C(/NC1CCCCC1)c1ccccc1, the inhibition is reported as inconclusive: 19.8%.
With O=S(=O)(c1ccc(NC(=S)NCc2ccncc2)cc1)N1CCCCC1 the inhibition was inconclusive: 6.8%.
In the case of CCOC(=O)C1CCCN(CC(=O)Nc2ccc(C(=O)Nc3ccccc3OC)cc2)C1 (configuration not stated), the inhibition is reported as inconclusive: 1.1%.
With CC(=O)Nc1ccc(S(=O)(=O)C(C#N)c2nc3ccccc3nc2NCCN2CCOCC2)cc1 (configuration not stated) the inhibition was inactive: 4.8%.
Cn1c(CNc2ccc(F)cc2)nc2ccccc21 was tested, and the inhibition was inconclusive: -24%.
In the case of CCOC(=O)C1Cn2c(nc3c(c2=O)C(C)(C)Cc2ccccc2-3)S1 (configuration not stated), the inhibition is reported as inconclusive: 16.8%.
For O=C1CSC(=Nc2ccc(Cl)cc2)N1Cc1ccco1, the inhibition was inconclusive: -28%.
With Cc1cc(CC(C)C)n(-c2nc3ccccc3c(=O)n2OCC(N)=O)n1 the inhibition was inconclusive: -10%.
COc1ccc(NC(=O)c2ccc(N3C(=O)C4CC=C(Cl)CC4C3=O)cc2)cc1 (configuration not stated) was tested, and the inhibition was inconclusive: -18.5%.
For CCCNC(=O)c1cc(Cl)c(NC(=O)C2=C(C)OCCS2)cc1OC, the inhibition was inactive: -19%.
With O=S(=O)(NCCc1cn2ccccc2n1)c1ccc(-c2ccccc2)cc1 the inhibition was inactive: -2.5%.
With COc1ccc2[nH]c3c(=O)n(Cc4ccncc4)cnc3c2c1 the inhibition was inactive: -9.8%.
O=C(CC(Nc1ccccc1)C(=O)O)c1ccccc1 (configuration not stated) was tested, and the inhibition was active: 42%.
In the case of COc1ccc(-c2nnc(SCC(=O)NCc3ccco3)n2C)cc1, the inhibition is reported as inconclusive: 23.2%.
For CCOC(=O)C1CN(S(=O)(=O)c2ccccc2)C1, the inhibition was inactive: -11.5%.
CCc1nc2ccc(C(=O)NCc3ccc(OC)cc3)cn2c1N(CC)CCOC was tested, and the inhibition was inactive: 3.5%.
COc1ccccc1-c1nc(-c2ccc(Br)o2)no1 was tested, and the inhibition was inactive: 1.7%.
CCCCC(CC)C(=O)Nc1ccc(S(=O)(=O)N2CCCC2)cc1 (configuration not stated) was tested, and the inhibition was inconclusive: -10.8%.
For Nn1c(SCC(=O)Nc2ccccc2F)nc2ccccc2c1=O, the inhibition was inactive: -1.9%.
In the case of CCn1c2nc(SCCN3CCOCC3)nnc2c2cc(C)cc(C)c21, the inhibition is reported as inactive: -22%.
CC(=O)Nc1cccc(C(=O)OC(C)C(=O)N2CCc3ccccc32)c1 (configuration not stated) was tested, and the inhibition was inconclusive: -4%.
In the case of COc1ccc(CCC(C)NCc2ccc(F)cc2)cc1 (configuration not stated), the inhibition is reported as inconclusive: -34.8%.
With CN(C)/C=C/C(=O)c1ccc(Br)s1 the inhibition was inactive: 0.8%.
For CC(=O)OCC(C)n1[nH]c2ccccc2c1=O (configuration not stated), the inhibition was inactive: -2.6%.
For CCOC(=O)N/N=C1\CC(C)S(=O)(=O)c2ccc(Cl)cc21 (configuration not stated), the inhibition was inconclusive: 41.8%.
For Nc1c(-c2ccccc2)cnn1-c1ccccc1, the inhibition was inconclusive: 1.1%.
CC(Oc1ccccc1F)C(=O)NNC(=O)Cc1ccc(S(=O)(=O)N2CCOCC2)s1 (configuration not stated) was tested, and the inhibition was active: 86.4%.
In the case of Cc1ccc(S(=O)(=O)N2CCN(C(=O)CCn3cncn3)CC2)cc1C, the inhibition is reported as inactive: -3.5%.
In the case of COc1cc2nc(SCC(=O)NCc3ccco3)n(Cc3ccc(Cl)cc3)c(=O)c2cc1OC, the inhibition is reported as inactive: -2.2%.
For COc1ccc(N(CC(=O)Nc2ccccc2OC)S(=O)(=O)c2ccc(NC(C)=O)cc2)cc1, the inhibition was inconclusive: -10.4%.
In the case of COc1ccc(C(=O)N(C)C2CCCN(Cc3ccccc3F)C2)cc1C (configuration not stated), the inhibition is reported as inconclusive: 37.6%.
For CCn1c2ccccc2c2cc(NC(=O)CSc3nnc(-c4ccc(OC)c(OC)c4)n3N)ccc21, the inhibition was inactive: -20%.
With Cc1cccn2c(=O)c3cc(C(=O)NC(C)c4ccccc4)c(=N)n(CCCn4ccnc4)c3nc12 (configuration not stated) the inhibition was inactive: -5.2%.
In the case of CC(=O)Oc1ccc(NC(=O)CCC2CCCCC2)c(C(=O)O)c1, the inhibition is reported as active: 37.7%.
In the case of C/C(=N\N1CCCCCC1)c1c(O)n(-c2ccccc2C)c(=O)[nH]c1=O, the inhibition is reported as inconclusive: -7.1%.
With COc1ccc(CCNC(=O)C(=O)NN=C2CCCCCCC2)cc1OC the inhibition was inconclusive: -130%.
With CC(Sc1nc2ccccc2c(=O)n1CC1CCCO1)C(=O)N(C)Cc1ccccc1 (configuration not stated) the inhibition was inconclusive: -8.2%.
For CC(=O)c1cccc(OCC(=O)c2cc(C)n(-c3cc(C)on3)c2C)c1, the inhibition was inactive: 8%.
In the case of COc1ccc(OC)c(/C=N/NC(=O)Cc2nc3ccccc3[nH]2)c1, the inhibition is reported as inactive: 6.4%.
With Cc1cc(=O)[nH]c2c(C)cc(S(=O)(=O)Nc3ccc(O)cc3)cc12 the inhibition was inconclusive: -0.1%.
In the case of O=C(O)c1cccc(NC(=O)c2ccccc2NC(=O)c2ccccc2F)c1, the inhibition is reported as inconclusive: 21.1%.
